# Test results published in US20150126465A1, “PROCESS FOR PRODUCING DERIVATIVES OF PYROSTEGIA VENUSTA, DERIVATIVES OF PYROSTEGIA VENUSTA, PHARMACEUTICAL COMPOSITIONS AND ITS USES” (priority 2011, published 2015).
# For at least one compound, name, drawing or mass did not settle the structure.
# Assay: DPPH antioxidant test
# Type: biochemical
# Details: 517 nm
# Description: The antioxidant activity evaluation was performed through DPPH test.
# Extract flower ethanol samples and PV6.7 were dissolved in methanol in concentrations of 1 mg.mL-1, 500 μg, mL-1, 250 μg, mL-1, 125 μg, mL-1, 62.5 μg, mL-1 and 31.25 μg, mL-1. As control Metabissulfito and Rutin were used in the same conditions of the samples.
# Around 0.002 g of DPPH was dissolved in 50 mL of methanol. Then, it was verified the solution absorbance in spectrophotometer, in 517 nm, which must be below 1.
# In a plastic Eppendorf, it was added 950 μL of methanolic solution of DPPH and 50 μL of the sample. As white, it was used in the place of the sample 50 μL of methanol. The samples were then incubated for 15 minutes at 30° C. After this period, the solutions were transferred to cuvettes and performed the readings at 517 nm, zeroing the spectrophotometer with methanol.
# % inhibition=B−A/B×100, being A=sample, and B=White
smiles,measurement,setting,value
C[C@@H]1O[C@@H](OC[C@H]2O[C@@H](Oc3c(-c4ccc(O)c(O)c4)oc4cc(O)cc(O)c4c3=O)[C@H](O)[C@@H](O)[C@@H]2O)[C@H](O)[C@H](O)[C@H]1O [Rutin],Antioxidant Activity Percentage,"sample 31.25 μg · mL^−1, 15 minutes at 30° C.",37.9%
same,Antioxidant Activity Percentage,"sample 62.5 μg · mL^−1, 15 minutes at 30° C.",82.6%
same,Antioxidant Activity Percentage,"sample 125 μg · mL^−1, 15 minutes at 30° C.",93.7%
same,Antioxidant Activity Percentage,"sample 250 μg · mL^−1, 15 minutes at 30° C.",94.5%
same,Antioxidant Activity Percentage,"sample 500 μg · mL^−1, 15 minutes at 30° C.",93.8%
same,Antioxidant Activity Percentage,"sample 1 mg · mL^−1, 15 minutes at 30° C.",94.8%
